Laboratory results reported in patent publication US20090036448A1, “PYRIMIDINE DERIVATIVES AND METHODS OF TREATMENT RELATED TO THE USE THEREOF” (TAISHO PHARMECUTICAL CO., LTD., priority 2004, published 2009).
At least one structure is not confirmed: it was looked up by name or label, or the drawing left a doubt.

Chains of the proteins cited; added tags and fusions are not shown. Lines headed by an entry give the natural chain unless they say otherwise; changes in a name come on top.
UniProt Q99705: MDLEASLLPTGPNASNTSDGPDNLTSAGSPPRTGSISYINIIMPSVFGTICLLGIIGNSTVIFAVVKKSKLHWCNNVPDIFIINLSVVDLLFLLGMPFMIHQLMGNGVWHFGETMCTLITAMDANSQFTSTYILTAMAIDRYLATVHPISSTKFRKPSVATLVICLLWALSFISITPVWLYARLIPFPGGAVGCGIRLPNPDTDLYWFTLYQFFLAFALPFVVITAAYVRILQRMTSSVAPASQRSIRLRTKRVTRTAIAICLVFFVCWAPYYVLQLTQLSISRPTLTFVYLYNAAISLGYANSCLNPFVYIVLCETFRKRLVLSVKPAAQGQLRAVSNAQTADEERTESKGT

Target: MCH receptor (Homo sapiens, UniProt Q99705)
Assay: Receptor binding assay with Radiolabelled MCH Ligand
Set-up: expressed in transfected cells; host or cells: 293 cells (human kidney, ATCC), transient transfection; crude membranes
Settings: class by percent of control at 10^-7 M or IC50
Source text: In addition to the methods described herein, another means for evaluating a test compound is by determining binding affinities to the MCH receptor. This type of assay generally requires a radiolabelled ligand to the MCH receptor. Absent the use of known ligands for the MCH receptor and radiolabels thereof, compounds of Formula (I) can be labelled with a radioisotope and used in an assay for evaluating the affinity of a test compound to the MCH receptor.
A radiolabelled MCH compound of Formula (I) can be used in a screening assay to identify/evaluate compounds. In general terms, a newly synthesized or identified compound (i.e., test compound) can be evaluated for its ability to reduce binding of the “radiolabelled compound of Formula (I)” to the MCH receptor. Accordingly, the ability to compete with the “radio-labelled compound of Formula (I)” or Radiolabelled MCH Ligand for the binding to the MCH receptor directly correlates to its binding affinity of the test compound to the MCH receptor.
293 cells (human kidney, ATCC), transiently transfected with 10 μg human MCH receptor and 60 μl Lipofectamine (per 15-cm dish), are grown in the dish for 24 hours (75% confluency) with a media change and removed with 10 mL/dish of Hepes-EDTA buffer (20 mM Hepes+10 mM EDTA, pH 7.4). The cells are then centrifuged in a Beckman Coulter centrifuge for 20 minutes, 17,000 rpm (JA-25.50 rotor). Subsequently, the pellet is resuspended in 20 mM Hepes+1 mM EDTA, pH 7.4 and homogenized with a 50-mL Dounce homogenizer and again centrifuged. After removing the supernatant, the pellets can be stored at −80° C., until used in binding assay. When used in the assay, membranes are thawed on ice for 20 minutes and then 10 mL of incubation buffer (20 mM Hepes, 1 mM MgCl2, 100 mM NaCl, pH 7.4) added. The membranes are then vortexed to resuspend the crude membrane pellet and homogenized with a Brinkmann PT-3100 Polytron homogenizer for 15 seconds at setting 6. The concentration of membrane protein is determined using the BRL Bradford protein assay.
For total binding, a total volume of 50 ul of appropriately diluted membranes (diluted in assay buffer containing 50 mM Tris HCl (pH 7.4), 1 mM MgCl2, and 1 mM EDTA; 5-50 ug protein) is added to 96-well polyproylene microtiter plates followed by addition of 100 μl of assay buffer and 50 μl of Radiolabelled MCH Ligand. For nonspecific binding, 50 μl of assay buffer is added instead of 100 μl and an additional 50 μl of 10 uM cold MCH is added before 50 μl of Radiolabelled MCH Ligand is added. Plates are then incubated at room temperature for 60-120 minutes. The binding reaction is terminated by filtering assay plates through a Microplate Devices GF/C Unifilter filtration plate with a Brandell 96-well plate harvester followed by washing with cold 50 mM Tris HCl, pH 7.4 containing 0.9% NaCl. Then, the bottom of the filtration plate are sealed, 50 ul of Optiphase Supermix is added to each well, the top of the plates are sealed, and plates are counted in a Trilux MicroBeta scintillation counter. For compound competition studies, instead of adding 100 μl of assay buffer, 100 μl of appropriately diluted test compound is added to appropriate wells followed by addition of 50 μl of Radiolabelled MCH Ligand. […]
Ki is calculated by the Cheng and Prustoff transformation: […]

Structure (SMILES): COc1cc(OC)c(NC(=S)N[C@H]2CC[C@@H](Nc3cc(N(C)C)nc(C)n3)CC2)cc1Cl [compound 443]
- class: 2 (Class 2: The value of percent of control at 10^−7 M was from 40% to 60% or the value of IC50 was from 50 nM to 200 nM.)

Structure (SMILES): Cc1nc(N[C@H]2CC[C@@H](NC(=S)Nc3ccc(Br)cc3OC(F)(F)F)CC2)cc(N(C)C)n1 [compound 441]
- class: 3 (Class 3: The value of percent of control at 10^−7 M was more than 60% or the value of IC50 was more than 200 nM.)

Structure (SMILES): Cc1nc(N[C@H]2CC[C@@H](NC(=S)Nc3c(C)cc(Cl)cc3Cl)CC2)cc(N(C)C)n1 [compound 439, N-(2,4-dichloro-6-methylphenyl)-N′-(cis-4-{[6-(dimethylamino)-2-methylpyrimidin-4-yl]amino}cyclohexyl)thiourea]
- class: 2 (Class 2: The value of percent of control at 10^−7 M was from 40% to 60% or the value of IC50 was from 50 nM to 200 nM.)

Structure (SMILES): Cc1nc(N[C@H]2CC[C@@H](NC(=S)Nc3ccc(Br)cc3C(F)(F)F)CC2)cc(N(C)C)n1 [compound 435]
- class: 3 (Class 3: The value of percent of control at 10^−7 M was more than 60% or the value of IC50 was more than 200 nM.)

Structure (SMILES): Cc1nc(N[C@H]2CC[C@@H](NC(=S)Nc3c(C)cc(Br)cc3C)CC2)cc(N(C)C)n1 [compound 436, N-(4-bromo-2,6-dimethylphenyl)-N′-(cis-4-{[6-(dimethylamino)-2-methylpyrimidin-4-yl]amino}cyclohexyl)thiourea]
- class: 2 (Class 2: The value of percent of control at 10^−7 M was from 40% to 60% or the value of IC50 was from 50 nM to 200 nM.)
